One experiment addresses PaPIP2-1 (P. armeniaca). The experiment can be described thus: two-hybrid; Matchmaker Gold Yeast Two Hybrid System (Clontech); PaAQP baits in pGBKT7, predicted partners as prey in pGADT7, cotransformed into yeast strain Gold Y2H; SD/-Leu/-Trp/-His/-Ade with 100 uM aureobasidin A and 3 mg/mL X-alpha-Gal, 30°C.
A further experiment addresses PaTIP1-1 (P. armeniaca). The experiment is described as above.

No constants are given. Whether binding was seen depends on the method and setting. A result given as binding can be weak or reduced; the word gives no strength.

B1: phosphatidylinositol-specific phospholipase C AtPLC1 (ATHATPLC1G) (protein, UniProt Q39032 1-561)
chain: MKESFKVCFCCVRNFKVKSSEPPEEIKNLFHDYSQDDRMSADEMLRFVIQVQGETHADINYVKDIFHRLKHHGVFHPRGIHLEGFYRYLLSDFNSPLPLTREVWQDMNQPLSHYFLYTGHNSYLTGNQLNSNSSIEPIVKALRNGVRVIELDLWPNSSGKEAEVRHGGTLTSREDLQKCLNVVKENAFQVSAYPVVLTLEDHLTPILQKKVAKMVSKTFGGSLFQCTDETTECFPSPESLKNKILISTKPPKEYLQTQISKGSTTDESTRAKKISDAEEQVQEEDEESVAIEYRDLISIHAGNRKGGLKNCLNGDPNRVIRLSMSEQWLETLAKTRGPDLVKFTQRNLLRIFPKTTRFDSSNYDPLVGWIHGAQMVAFNMQSHGRYLWMMQGMFKANGGCGYVKKPDVLLSNGPEGEIFDPCSQNLPIKTTLKVKIYTGEGWNMDFPLDHFDRYSPPDFYAKVGIAGVPLDTASYRTEIDKDEWFPIWDKEFEFPLRVPELSLLCITVKDYDSNTQNDFAGQTCFPLSEVRPGIRAVRLHDRAGEVYKHVRLLMRFVLEPR
On to B1, for which the binding result with PaPIP2-1 (P. armeniaca) is “binds”.

B2: TSPO (protein, UniProt O82245 1-196)
chain: MDSQDIRYRGGDDRDAATTAMAETERKSADDNKGKRDQKRAMAKRGLKSLTVAVAAPVLVTLFATYFLGTSDGYGNRAKSSSWIPPLWLLHTTCLASSGLMGLAAWLVWVDGGFHKKPNALYLYLAQFLLCLVWDPVTFRVGSGVAGLAVWLGQSAALFGCYKAFNEISPVAGNLVKPCLAWAAFVAAVNVKLAVA
Regarding B2, the binding entry with PaTIP1-1 (P. armeniaca) is “binds”.

The record behind these values is article PMC8520955.
